PMC4358907

Chains of the proteins cited; added tags and fusions are not shown. Lines headed by an entry give the natural chain unless they say otherwise; changes in a name come on top.
UniProt F4J7T2: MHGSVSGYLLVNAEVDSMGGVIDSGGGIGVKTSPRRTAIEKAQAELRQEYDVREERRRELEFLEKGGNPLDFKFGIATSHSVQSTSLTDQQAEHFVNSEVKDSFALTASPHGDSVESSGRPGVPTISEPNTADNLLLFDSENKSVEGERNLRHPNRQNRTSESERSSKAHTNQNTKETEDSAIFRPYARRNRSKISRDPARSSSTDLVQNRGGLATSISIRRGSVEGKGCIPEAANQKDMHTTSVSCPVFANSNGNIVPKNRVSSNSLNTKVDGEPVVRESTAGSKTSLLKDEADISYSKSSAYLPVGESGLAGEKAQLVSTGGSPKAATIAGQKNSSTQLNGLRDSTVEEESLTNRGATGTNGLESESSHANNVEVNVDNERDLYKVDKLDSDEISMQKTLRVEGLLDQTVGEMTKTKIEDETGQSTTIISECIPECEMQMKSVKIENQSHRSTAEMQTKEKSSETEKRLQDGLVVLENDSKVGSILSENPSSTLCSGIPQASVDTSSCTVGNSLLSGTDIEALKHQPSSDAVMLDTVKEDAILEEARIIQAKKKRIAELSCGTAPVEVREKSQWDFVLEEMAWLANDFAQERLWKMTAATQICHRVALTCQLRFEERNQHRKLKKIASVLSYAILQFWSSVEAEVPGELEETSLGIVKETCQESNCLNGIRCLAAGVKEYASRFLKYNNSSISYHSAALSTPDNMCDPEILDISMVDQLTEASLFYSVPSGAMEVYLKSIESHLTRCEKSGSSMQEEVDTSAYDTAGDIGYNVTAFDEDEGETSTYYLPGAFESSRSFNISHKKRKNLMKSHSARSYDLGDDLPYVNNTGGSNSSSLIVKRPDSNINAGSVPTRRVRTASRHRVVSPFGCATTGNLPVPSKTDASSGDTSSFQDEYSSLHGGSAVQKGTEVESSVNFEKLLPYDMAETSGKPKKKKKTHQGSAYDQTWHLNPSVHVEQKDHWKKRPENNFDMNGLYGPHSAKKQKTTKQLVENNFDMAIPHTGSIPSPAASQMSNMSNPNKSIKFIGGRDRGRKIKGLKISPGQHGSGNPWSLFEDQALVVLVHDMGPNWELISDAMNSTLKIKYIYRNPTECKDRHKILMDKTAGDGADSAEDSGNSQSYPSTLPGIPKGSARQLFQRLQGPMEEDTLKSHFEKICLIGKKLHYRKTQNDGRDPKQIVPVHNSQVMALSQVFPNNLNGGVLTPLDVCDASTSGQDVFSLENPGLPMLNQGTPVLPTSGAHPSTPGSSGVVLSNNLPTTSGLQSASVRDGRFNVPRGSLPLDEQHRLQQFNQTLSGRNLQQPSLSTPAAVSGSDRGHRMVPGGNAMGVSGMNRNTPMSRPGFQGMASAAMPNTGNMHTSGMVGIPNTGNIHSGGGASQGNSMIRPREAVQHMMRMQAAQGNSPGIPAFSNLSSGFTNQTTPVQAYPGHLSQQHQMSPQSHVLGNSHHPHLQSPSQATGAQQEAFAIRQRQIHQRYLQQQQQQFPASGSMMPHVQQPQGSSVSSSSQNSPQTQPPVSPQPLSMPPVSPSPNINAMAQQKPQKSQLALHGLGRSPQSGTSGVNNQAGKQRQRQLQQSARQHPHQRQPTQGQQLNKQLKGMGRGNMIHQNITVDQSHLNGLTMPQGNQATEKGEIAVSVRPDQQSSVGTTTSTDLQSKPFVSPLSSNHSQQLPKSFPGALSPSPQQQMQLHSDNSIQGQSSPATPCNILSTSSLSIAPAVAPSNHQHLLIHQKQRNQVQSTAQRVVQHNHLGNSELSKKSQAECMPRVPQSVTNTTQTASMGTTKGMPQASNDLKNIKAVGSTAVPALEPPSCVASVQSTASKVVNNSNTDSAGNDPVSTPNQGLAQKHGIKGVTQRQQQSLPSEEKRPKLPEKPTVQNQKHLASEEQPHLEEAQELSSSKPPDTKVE
UniProt Q9FZD2: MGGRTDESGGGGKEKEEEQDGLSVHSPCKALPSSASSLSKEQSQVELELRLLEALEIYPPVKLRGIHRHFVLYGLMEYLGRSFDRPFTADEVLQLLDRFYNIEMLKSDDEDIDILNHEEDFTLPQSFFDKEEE
UniProt Q9FX82: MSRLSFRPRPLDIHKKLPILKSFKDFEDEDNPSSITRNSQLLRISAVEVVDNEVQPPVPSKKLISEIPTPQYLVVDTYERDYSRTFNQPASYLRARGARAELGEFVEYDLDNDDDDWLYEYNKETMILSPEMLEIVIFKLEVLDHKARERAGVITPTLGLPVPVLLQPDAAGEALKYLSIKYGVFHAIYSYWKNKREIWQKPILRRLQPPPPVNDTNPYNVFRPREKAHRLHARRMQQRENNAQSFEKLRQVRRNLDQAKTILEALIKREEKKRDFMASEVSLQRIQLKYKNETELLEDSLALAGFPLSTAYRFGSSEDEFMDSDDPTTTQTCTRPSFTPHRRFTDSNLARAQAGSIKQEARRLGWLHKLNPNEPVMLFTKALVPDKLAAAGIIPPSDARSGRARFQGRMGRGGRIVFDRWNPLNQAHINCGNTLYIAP
UniProt Q7X9V2: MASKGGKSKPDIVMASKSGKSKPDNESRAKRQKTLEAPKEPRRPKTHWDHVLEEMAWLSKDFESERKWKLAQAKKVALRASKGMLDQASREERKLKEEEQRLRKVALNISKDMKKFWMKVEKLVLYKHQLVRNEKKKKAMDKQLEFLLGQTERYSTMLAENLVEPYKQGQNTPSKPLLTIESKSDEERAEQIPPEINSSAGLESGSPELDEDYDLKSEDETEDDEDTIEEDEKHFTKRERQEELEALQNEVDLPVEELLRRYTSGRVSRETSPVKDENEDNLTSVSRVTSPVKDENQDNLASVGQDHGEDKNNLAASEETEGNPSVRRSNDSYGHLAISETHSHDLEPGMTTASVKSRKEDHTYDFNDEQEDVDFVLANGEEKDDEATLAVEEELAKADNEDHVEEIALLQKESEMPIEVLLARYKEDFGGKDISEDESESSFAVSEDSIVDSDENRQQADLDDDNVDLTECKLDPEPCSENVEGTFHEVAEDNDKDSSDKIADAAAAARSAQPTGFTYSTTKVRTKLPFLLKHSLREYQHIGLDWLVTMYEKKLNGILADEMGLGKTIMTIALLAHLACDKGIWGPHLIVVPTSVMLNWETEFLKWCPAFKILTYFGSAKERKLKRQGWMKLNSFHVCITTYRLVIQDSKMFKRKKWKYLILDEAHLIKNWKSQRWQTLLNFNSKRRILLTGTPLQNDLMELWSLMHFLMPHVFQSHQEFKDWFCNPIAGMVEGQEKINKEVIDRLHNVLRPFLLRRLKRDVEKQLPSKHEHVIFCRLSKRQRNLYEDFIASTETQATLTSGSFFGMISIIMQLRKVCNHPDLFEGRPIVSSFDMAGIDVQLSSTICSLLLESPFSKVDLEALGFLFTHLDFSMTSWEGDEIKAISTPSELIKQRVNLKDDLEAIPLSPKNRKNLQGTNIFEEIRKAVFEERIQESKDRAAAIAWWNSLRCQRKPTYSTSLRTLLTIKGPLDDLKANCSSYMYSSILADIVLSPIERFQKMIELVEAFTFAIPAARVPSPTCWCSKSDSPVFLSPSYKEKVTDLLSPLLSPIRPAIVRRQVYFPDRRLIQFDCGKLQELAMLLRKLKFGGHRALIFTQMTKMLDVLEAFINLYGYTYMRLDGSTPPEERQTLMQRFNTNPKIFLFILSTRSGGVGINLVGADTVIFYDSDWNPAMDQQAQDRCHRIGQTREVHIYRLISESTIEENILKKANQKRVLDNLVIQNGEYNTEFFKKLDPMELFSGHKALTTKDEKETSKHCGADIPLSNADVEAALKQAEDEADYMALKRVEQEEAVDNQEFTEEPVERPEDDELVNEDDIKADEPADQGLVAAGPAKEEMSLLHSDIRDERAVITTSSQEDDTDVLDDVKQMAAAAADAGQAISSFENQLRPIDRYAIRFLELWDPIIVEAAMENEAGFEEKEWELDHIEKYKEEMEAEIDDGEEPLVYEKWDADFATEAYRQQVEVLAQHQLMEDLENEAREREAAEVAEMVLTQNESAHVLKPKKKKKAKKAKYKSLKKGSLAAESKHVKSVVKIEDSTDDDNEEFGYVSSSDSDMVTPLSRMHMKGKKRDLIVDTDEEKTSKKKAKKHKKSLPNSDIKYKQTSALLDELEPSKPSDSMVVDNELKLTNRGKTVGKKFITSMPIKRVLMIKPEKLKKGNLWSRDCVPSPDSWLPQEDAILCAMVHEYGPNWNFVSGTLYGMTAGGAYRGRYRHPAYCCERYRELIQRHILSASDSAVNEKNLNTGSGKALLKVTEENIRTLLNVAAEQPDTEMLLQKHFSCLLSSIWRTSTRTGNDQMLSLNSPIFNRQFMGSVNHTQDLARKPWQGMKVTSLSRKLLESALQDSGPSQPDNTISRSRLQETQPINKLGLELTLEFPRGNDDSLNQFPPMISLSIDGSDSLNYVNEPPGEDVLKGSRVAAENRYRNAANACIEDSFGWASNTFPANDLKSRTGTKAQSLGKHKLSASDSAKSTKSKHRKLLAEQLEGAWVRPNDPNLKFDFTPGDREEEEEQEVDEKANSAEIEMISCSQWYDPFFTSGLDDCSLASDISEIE
UniProt Q9FMR9: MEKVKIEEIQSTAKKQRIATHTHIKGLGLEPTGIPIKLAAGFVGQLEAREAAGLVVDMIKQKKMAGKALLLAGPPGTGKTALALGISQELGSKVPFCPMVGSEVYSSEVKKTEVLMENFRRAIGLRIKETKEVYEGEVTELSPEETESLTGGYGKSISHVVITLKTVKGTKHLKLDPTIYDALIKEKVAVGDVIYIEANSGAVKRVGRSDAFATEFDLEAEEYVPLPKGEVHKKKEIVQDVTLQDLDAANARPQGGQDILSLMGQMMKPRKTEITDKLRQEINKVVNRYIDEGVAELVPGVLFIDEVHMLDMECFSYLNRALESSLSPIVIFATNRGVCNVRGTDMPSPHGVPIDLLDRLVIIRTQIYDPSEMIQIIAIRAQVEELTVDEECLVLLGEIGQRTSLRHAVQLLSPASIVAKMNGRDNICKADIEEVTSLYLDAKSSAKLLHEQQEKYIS
UniProt F4K569: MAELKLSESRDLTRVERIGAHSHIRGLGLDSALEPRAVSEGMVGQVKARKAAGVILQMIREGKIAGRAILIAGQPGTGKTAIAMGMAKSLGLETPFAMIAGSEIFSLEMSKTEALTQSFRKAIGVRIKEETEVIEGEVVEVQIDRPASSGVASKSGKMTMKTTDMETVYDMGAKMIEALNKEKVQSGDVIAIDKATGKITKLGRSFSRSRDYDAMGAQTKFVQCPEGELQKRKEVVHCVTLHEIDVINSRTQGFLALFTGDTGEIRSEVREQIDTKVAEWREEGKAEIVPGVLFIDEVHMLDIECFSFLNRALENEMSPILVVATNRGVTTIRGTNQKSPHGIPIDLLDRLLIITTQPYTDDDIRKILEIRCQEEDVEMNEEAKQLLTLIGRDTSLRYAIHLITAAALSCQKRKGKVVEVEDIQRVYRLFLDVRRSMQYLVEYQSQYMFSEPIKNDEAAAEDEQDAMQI
UniProt F4JBZ1: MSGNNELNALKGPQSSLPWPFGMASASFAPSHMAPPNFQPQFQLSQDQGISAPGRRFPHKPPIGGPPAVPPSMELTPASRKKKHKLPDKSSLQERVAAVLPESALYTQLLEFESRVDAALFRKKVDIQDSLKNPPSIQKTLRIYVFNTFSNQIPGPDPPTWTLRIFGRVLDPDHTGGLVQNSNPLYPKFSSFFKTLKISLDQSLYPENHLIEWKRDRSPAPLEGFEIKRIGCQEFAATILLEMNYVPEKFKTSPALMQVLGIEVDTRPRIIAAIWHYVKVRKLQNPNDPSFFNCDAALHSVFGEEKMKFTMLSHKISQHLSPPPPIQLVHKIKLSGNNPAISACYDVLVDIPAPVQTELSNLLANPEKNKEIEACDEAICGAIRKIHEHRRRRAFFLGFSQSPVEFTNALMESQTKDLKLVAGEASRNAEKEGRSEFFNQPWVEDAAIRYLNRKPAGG
UniProt Q9FMT4: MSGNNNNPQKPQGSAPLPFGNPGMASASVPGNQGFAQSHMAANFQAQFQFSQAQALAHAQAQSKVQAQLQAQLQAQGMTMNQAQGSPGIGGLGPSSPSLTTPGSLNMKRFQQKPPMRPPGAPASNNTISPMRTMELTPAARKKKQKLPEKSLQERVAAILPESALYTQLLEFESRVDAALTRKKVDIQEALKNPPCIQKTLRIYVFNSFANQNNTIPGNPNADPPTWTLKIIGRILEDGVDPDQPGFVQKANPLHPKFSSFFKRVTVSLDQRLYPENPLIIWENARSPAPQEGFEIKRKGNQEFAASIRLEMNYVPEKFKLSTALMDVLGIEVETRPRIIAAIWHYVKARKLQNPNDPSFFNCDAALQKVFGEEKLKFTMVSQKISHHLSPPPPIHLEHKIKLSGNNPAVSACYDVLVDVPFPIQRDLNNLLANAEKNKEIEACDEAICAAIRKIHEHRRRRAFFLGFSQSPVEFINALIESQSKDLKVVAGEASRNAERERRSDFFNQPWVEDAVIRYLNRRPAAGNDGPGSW

Legend:
[1] = target: T1, One-STrEP-tag:ATSWC4 fusion protein (Arabidopsis thaliana) (UniProt Q8VZL6); test: affinity purification with mass spectrometry; One-STrEP-tagged bait stably expressed in Arabidopsis T87 suspension cells; extract in buffer H or L loaded on Strep-Tactin Superflow resin, seven washes (100 mM Tris-HCl pH 8.0, 150 mM NaCl), eluted with 2.5 mM desthiobiotin; MS/MS (Orbitrap Velos); hits of controls with no bait or Strep-GFP removed
T1 sequence: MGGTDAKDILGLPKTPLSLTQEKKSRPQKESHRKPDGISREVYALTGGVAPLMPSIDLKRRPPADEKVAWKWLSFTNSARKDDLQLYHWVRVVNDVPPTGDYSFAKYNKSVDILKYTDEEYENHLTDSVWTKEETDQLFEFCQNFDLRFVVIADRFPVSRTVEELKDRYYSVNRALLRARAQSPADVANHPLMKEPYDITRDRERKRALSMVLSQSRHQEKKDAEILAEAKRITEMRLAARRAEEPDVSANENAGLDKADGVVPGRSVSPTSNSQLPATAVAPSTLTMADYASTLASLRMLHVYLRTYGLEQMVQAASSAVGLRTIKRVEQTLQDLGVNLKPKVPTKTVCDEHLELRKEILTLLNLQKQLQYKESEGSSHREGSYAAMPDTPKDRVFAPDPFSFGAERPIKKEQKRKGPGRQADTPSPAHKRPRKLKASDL

[2] = target: T2, One-STrEP-tag:ATARP4 fusion protein (Arabidopsis thaliana) (UniProt Q84M92); test: as above
T2 sequence: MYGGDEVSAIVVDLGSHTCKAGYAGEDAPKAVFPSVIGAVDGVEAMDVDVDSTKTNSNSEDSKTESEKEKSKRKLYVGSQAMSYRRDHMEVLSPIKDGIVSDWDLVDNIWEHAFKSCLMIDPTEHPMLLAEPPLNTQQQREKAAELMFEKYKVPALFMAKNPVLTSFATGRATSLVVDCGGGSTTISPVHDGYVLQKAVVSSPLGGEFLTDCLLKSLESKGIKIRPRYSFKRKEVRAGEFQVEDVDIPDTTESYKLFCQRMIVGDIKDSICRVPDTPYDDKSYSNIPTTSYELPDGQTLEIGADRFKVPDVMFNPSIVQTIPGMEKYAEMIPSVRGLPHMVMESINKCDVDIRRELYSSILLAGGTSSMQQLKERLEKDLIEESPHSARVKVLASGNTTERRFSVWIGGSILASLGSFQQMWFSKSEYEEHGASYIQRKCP

AtEAF1A (from UniProt F4J7T3)
binding [1]: binds | binding [2]: binds

AtEAF1B (from UniProt F4J7T2)
binding [1]: binds | binding [2]: binds

AtYAF9A (from UniProt Q9FH40)
binding [1]: binds

BRM (from UniProt Q6EVK6 1-2193)
binding [1]: no binding | binding [2]: binds

EAF6
binding [1]: binds | binding [2]: binds

EAF7 (from UniProt Q9FZD2)
binding [1]: binds

EPL1A (from UniProt Q9FX82)
binding [1]: binds

EPL1B (from UniProt F4IDH5)
binding [1]: binds | binding [2]: binds

NFRKB
binding [1]: no binding | binding [2]: binds

PIE1 (from UniProt Q7X9V2 1-2055)
binding [1]: binds | binding [2]: binds

RVB1 (from UniProt Q9FMR9 1-458)
binding [1]: binds | binding [2]: binds

RVB21 (from UniProt F4K569)
binding [1]: binds | binding [2]: binds

RVB22 (from UniProt Q9M2X5)
binding [1]: binds | binding [2]: binds

SWP73A (from UniProt F4JBZ1)
binding [1]: no binding | binding [2]: binds

SWP73B (from UniProt Q9FMT4)
binding [1]: no binding | binding [2]: binds

SYD (from UniProt F4IHS2 1-3574)
binding [1]: no binding | binding [2]: binds

B1: ARP5 (protein, UniProt Q940Z2 1-724)
chain: MAFVSRIRRQSDYNTYPSSIPIVIDNGASYFRIGWAGETEPRVVFRNIVQRPRHKATGETVTIVGDLDPSMMKYFDCTRSGPRSPFDSNVVYQFEIMEYILDYAFDRLGANGSGIDHPILITECACNPVQSRSKMAELLFETYGVPAVAFGVDAAFSYKYNQLHGICKKDGIVLCPGFTTTHSIPFVDGEPIYKGSSRTNIGGYHVTDYLKQLLSLKYPFHSSRFTWEKAEDLKLEHCYIAPDYASEIRLFQEGRKEAEEKTSYWQLPWIPPPTEVPPSEEEIARKAAIREKQGQRLREMAEAKRVSKINDMENQLISLRFLLKQVDQVEEDDIPTFLSDTGYASRQELESTITKVTQSLRKARGEPKNEPAEYEENPDSLNNEKYPLMNVPDDILTPEQLKDKKRQMFLKTTAEGRLRARQKRNEEELEKEKRNQLEEERRRENPESYLEELQAQYKEVLERVEQKKRLKTNGSSNGNNKSGGIGRGERLSAAQRERMRLLTTAAFDRGKGEDTFGSRDEDWQLYKLMSKDNDDDDEQPDSDEAELARLSSRLQEIDPTFVQKVEGELSQTSGEVPRVRPLTEEDYKIVIGIERFRCPEILFHPNLIGIDQVGLDEMAGTSIRRLPHDEKELEERLTSSILMTGGCSLLPGMNERLECGIRMIRPCGSPINVVRAMDPVLDAWRGASAFAANLNFLGNAFTKMDYDEKGEDWLRNYQIRYNYL
binding [1]: no binding | binding [2]: binds

B2: ARP9 (protein, UniProt Q9LSW2 1-596)
chain: MAKPKSNSHLSWQDYLKTVAPTQILSERGANLVVINLGSANVRVGLAMDEKPFNVPNCIARYITQSGKPTVVDQMLNTEVTTNQHVDRERAYNSAASLLKILFLDESSSSGSASRKMGRIDGYNQASTIKKDSVFTWTDVYEDEKISLASPAETSPDKGDASASEAVPDVTDSKDTSESKRKYRKMIFGEEALKISPKEPYCLYHPIRRGHFNVSPHYSAQRVCEDLTAILDWILLEKLHITHKERFSFHAVIVVPETFDTREIKEMLTIVLGELYFNSAVVHQEGLSAVFGNGLTTACIVNIGAQTSTVVCVEDGVSLPNTEKILPFGGEDICRCLLWIQRHYQKWPQINTDVLAKPIDMLMLNQLKESFCEIRAGELETVATVHSYEEGMPAVPHKTNLTSLNVPPMGLFYPNLLVPEIFPQPPRQWFQDYENMLEDTWNMDFGGGGNMGLPMWDSFAFSPSKPKKEEKIGLAEAITSSILSAGRIDLRRKLFSSIQLIGGAGLTKGLVAAVEERVLHAIPPTEAIDTVQVLPSRTEPQFVTWKGGAILGILDFGREAWIERHQWMVNGVNKGGLKKYKDSYHLQGQAMYFINP
binding [1]: no binding | binding [2]: binds

B3: YY1 (protein, UniProt Q2V3L3 1-387)
chain: MDHQNYQYQNPFERRPILKSKAPAVKWIKEWVPQDIVATGGKCHLHKWVTEDTFSRLKEKEKEPDVPEPEPEPTTEILFLCSYDGCGKTFFDVSALRKHSHIHGERQYVCDQEGCGKKFLDSSKLKRHYLIHTGERNYICTYEGCGKAFSLDFNLRSHMKTHSQENYHICPYSGCVKRYAHEYKLKNHVAAYHEKNGGGETPKYTPPAEKVLRTVKTPATVCGPSSDRPYACPYEGCEKAYIHEYKLKLHLKREHPGHLQEENADTPTLNKHNGNDRNEIDDGSDQDVYRKHASNGKGQTHKQQSRAKPNMRTPPAKVGKKGSTSSPAKARIAKKPWQAKETFEEVEREEEEDSEETEEDRDNVEDGWRFGENNEDDDDDEETEYED
binding [1]: no binding | binding [2]: binds

B4: ARP7 (protein, UniProt Q8L4Y5 1-363)
chain: MEALVVDAGSKFLKAGAAIPDQSPAMIIPSQMKRMVDDGSSSADNPTTVFEDVTLDPIERGLIRDWDAMEDLLRYVVYTGLGWEEGNEGNILFTDPLCTPKAIREQLVQLMFETFNVSGFYASEQAVLSLYAVGRISGCTVDIGHGKIDIAPVLEGAVQHIASKRFELGGTELTKLFAQELGKTNPSMNLSMSDVEKLKEQYANCAEDEIAYKKTQNCEIEQHTLPDGQVISIGRERYSVGEALFQPSILGLEEHGIVEQLVRIISTVSSENHRQLLENTVLCGGTTSMTGFESRFQKEANLCSSAIRPTLVKPPEYMPENLGMYSAWVGGAILAKVVFPQNQHVTKADYDETGPSVVHRKCF
binding [1]: no binding | binding [2]: binds

B5: BSH (protein, UniProt P93045 1-240)
chain: MKGLVSTGWKGPVKFRMPTAENLVPIRLDIQFEGQRYKDAFTWNPSDPDNEVVIFAKRTVKDLKLPYAFVTQIAQSIQSQLSDFRAYEGQDMYTGEKIIPIKLDLRVNHTLIKDQFLWDLNNFESDPEEFARTLCKDLGVEDPEVGPAVAFAIREQLYEIAIQSVASARESRLSKKGRRGSDHGSASKASGLSMDLMKLFSFKSSVVRKRKDLDVYEPVVDLLTSEEVDALEAREERHAR
binding [1]: no binding | binding [2]: binds

B6: ARP6 (protein, UniProt Q8LGE3 1-421)
chain: MSNIVVLDNGGGLIKAGQGGERDPTTVIPNCLYKPLSSKKFIHPSPLTTLSDEIDLTSAAVRRPIDRGYLINSDLQREIWSHLFTSLLHIAPSSSSLLLTEAPLSIPSVQRTTDELVFEDFGFSSLYIAHPQSLVHLYEASRQPDSILSKTQCSLVVDCGFSFTHAVPVLHNFTLNHAIKRIDLGGKAFTNYLKELVSYRSINVMDETFLVDDAKEKLCFVSLDLLRDLRLARNGNTLIKSTYVLPDGVTHTKGYVKDPQAAKRFLSLSEKESVVVMDKVGERKKADMNKNEIDLTNERFLVPETLFQPADLGMNQAGLAECIVRAINSCHSYLQPVLYQSIILTGGSTLFPQLKERLEGELRPLVPDHFDVKITTQEDPILGVWRGGSLLASSPDFESMCVTKAEYEELGSARCRRRFFH
binding [1]: binds

B7: MRG1 (protein, UniProt Q94C32 1-320)
chain: MGSSSKEETASDGDTASGGASPSNDGRLFSEGERVLAYHGPRVYGAKVQKVELRKKEWKYFVHYLGWNKNWDEWVSADRLLKHTEENLVKQKALDKKQGVEKGTKSGRSAQTKTRSSADTKADKDDTKTNAAKGKKRKHESGNEKDNVTAEKLMKIQIPASLKKQLTDDWEYIAQKDKVVKLPRSPNVDEILSKYLEFKTKKDGMVTDSVAEILKGIRSYFDKALPVMLLYKKERRQYQESIVDDTSPSTVYGAEHLLRLFVKLPDLFSYVNMEEETWSRMQQTLSDFLKFIQKNQSTFLLPSAYDSDKVSDGKGKGKDD
binding [1]: binds

B8: SWC2 (protein, UniProt F4IP06 1-365)
chain: MEIDEEEPMVFLDRTTRATRGKRMTKLLDDEVEEDEQFWNQEALKEEEHDDEYEAEREVADEFDSDFNDDEPEPDAVAVNEKELRDLPKKRLIYPGKTASKKKKKKTKVVSQLEYIPGDEKPGEELGNKEQEEKEENEAQEDMEGEKVIRKSTRTSVVVRQAERDALRAAIQATTKPIQRKKVGEEKRMTQEEMLLEAAQTEIMNLRNLERVLAREEEVKKKAIVHKAVYKGPQIRYHSKDGCNYLEFCNGASFNSELSTKSVPYPEKAVCVITGLPAKYRDPKTGLPYATRDAFKAIRERFMDEHDGLRKKMEMGDLFDTLVAKGFATKQKRTKIPKSNKSFSLRSSARFLSSESEEESEEDSD
binding [1]: binds

B9: SWC6 (protein, UniProt Q9FHW2 1-171)
chain: MEEEMSNRRVSNRTRKVATKMAAALTSNDNRTQAAIARLEALENDNGAIEVIDLNDDEEASLDEDDDLGYLQKKQHKGSKRKTRQAKALEARKAPKSFLELLQEANLESLPSHVPTYLKAAVGPPSSSSRRYFCSVCGYIAGYNCCLCGMRFCSIRCQNIHKDTRCQKFVA
binding [1]: binds

No constants are given. Whether binding was seen depends on the method and setting. Binding seen in cells or lysates may run through a third protein. These calls come from enrichment with a bait or labelling near it, and not all partners need be listed. For some of these results: No binding means not detected with the bait. Tags and fused reporters may be left off the sequences shown.
